Data on one substance can be found in article doi:10.1101/2021.01.31.428746.

Sequences of proteins named here, by UniProt entry; tags and fusion partners are left off. Residues count along the entry.
UniProt P9WLS1, residues 28-143: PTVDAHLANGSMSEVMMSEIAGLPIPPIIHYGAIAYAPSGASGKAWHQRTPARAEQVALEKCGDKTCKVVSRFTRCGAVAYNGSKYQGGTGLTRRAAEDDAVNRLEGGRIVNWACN

These are yes or no findings as the source states them, for the method shown.

This experiment concerns the target Rv1813c_(28-143), recombinant Rv1813c without its signal peptide (Mycobacterium tuberculosis) (UniProt P9WLS1). As to the kind of experiment: SEC-MALS. In general terms: SEC sorts molecules by how far they enter the pores of the column.

On to “Rv1813c_(28-143), recombinant Rv1813c without its signal peptide (from UniProt P9WLS1 28-143)”, for which the binding result was “no binding”.
